Data as given in doi:10.1101/355487.
These are yes or no findings as the source states them, for the method shown. Binding seen in cells or lysates may run through a third protein. Binding calls can cover weak binding; strength is not graded here.

These substances were tested against T1, HJURP (endogenous, Xenopus egg extract) (Xenopus laevis (endogenous in egg extract)) (assay: co-IP).
T1 sequence: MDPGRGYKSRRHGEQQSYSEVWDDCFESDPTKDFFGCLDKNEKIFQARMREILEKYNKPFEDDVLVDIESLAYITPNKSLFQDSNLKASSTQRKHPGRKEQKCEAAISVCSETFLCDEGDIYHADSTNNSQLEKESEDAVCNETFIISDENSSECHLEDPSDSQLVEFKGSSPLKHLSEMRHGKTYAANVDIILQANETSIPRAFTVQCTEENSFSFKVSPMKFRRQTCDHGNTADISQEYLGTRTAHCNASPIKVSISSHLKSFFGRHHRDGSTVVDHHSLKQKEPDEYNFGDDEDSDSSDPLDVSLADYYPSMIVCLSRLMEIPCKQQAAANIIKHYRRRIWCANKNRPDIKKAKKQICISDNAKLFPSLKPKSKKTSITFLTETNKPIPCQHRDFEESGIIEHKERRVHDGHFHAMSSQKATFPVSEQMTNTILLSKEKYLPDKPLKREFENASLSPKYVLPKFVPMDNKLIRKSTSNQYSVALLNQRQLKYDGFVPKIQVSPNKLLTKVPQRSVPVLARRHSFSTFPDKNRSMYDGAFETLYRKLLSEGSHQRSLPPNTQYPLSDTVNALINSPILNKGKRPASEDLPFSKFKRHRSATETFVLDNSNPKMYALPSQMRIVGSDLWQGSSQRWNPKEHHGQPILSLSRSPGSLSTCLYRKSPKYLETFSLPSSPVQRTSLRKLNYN

binding, binds:
Flag-M18BP1-1^T166A (Xenopus laevis)
Flag-M18BP1-1^(T166A, SANTA) (Xenopus laevis)
Flag-M18BP1-1^WT (full-length Xenopus laevis M18BP1-1)
